# Assay results taken from PubChem BioAssay AID328 (DTP/NCI, 2004).
# The list does not hold the whole screen: it gathers tests that were run many times, whatever their T/C, doses with no T/C, and many T/C values between a quarter and a half above the control. Further doses and runs are listed elsewhere. T/C: endpoint of the treated group in % of that of the vehicle group. Some entries give survivors of the animals treated and no T/C: the source holds a T/C of zero for them, seemingly a mark for toxic or unscored doses. Some survivor counts are full or nearly so, which does not show that the dose was tolerated: the source hardly ever lists a survival T/C far under the control, and the zero likely stands for such cases as well. Counts of survivors are from the toxicity check (mostly the fifth day) where no day follows; animals may have died later. Schedules are NCI's codes, taken here to give the interval after Q, in days (D) or hours (H), and the number of doses after X. Some structures stand for samples that the source files as different forms (salt, stereo form or complex); doses refer to the form tested. Where survival is the endpoint, the PubChem record calls one and a half times the control and up active, and a quarter to a half above the control has no call in these data; cut-offs in other NCI protocols can differ. Counts like (3×) stand for listed records that agree. Some T/C values are followed by the survivors on the day toxicity was checked, most often the fifth; where none is given, no animal had died by that day. Some entries were tested several times; their values stand side by side, smallest first.
# System: BDF1 mice, P388 leukemia ip, median survival T/C
# Assay: NCI In Vivo Anticancer Drug Screen. Data for tumor model P388 Leukemia (intraperitoneal) in B6D2F1 (BDF1) mice
# Details: T/C endpoint: median survival time, higher T/C = longer survival
# Summary of the method: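 In tumour-bearing mice, survival after compound treatment is set against the vehicle group and given as a quotient.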
# [1] = dose: 200.0 mg/kg/injection, schedule: Q01DX009 (ip), vehicle: saline with Tween-80
# [2] = dose: 400.0 mg/kg/injection, schedule: Q01DX009 (ip), vehicle: saline with Tween-80
# [3] = dose: 50.0 mg/kg/injection, schedule: Q01DX009 (ip), vehicle: saline
# [4] = dose: 200.0 mg/kg/injection, schedule: Q04DX003 (ip), vehicle: Klucel (hydroxypropylcellulose) (HPC)
# [5] = dose: 100.0 mg/kg/injection, schedule: Q01DX009 (ip), vehicle: Klucel (hydroxypropylcellulose) (HPC)
# [6] = dose: 400.0 mg/kg/injection, schedule: Q01DX009 (ip), vehicle: Klucel (hydroxypropylcellulose) (HPC)
# [7] = dose: 60.0 mg/kg/injection, schedule: Q01DX009 (ip), vehicle: saline
# [8] = dose: 200.0 mg/kg/injection, schedule: Q01DX009 (ip), vehicle: saline
# [9] = dose: 400.0 mg/kg/injection, schedule: Q01DX009 (ip), vehicle: saline
# [10] = dose: 200.0 mg/kg/injection, schedule: Q01DX009 (ip), vehicle: Klucel (hydroxypropylcellulose) (HPC)
# [11] = dose: 100.0 mg/kg/injection, schedule: Q01DX009 (ip), vehicle: saline
structure (smiles),measurement,setting,value
Nc1ccc(S(=O)(=O)Nc2ccc([N+](=O)[O-])cc2)cc1,survivor count,"dose: 50.0 mg/kg/injection, schedule: Q01DX009 (ip), vehicle: saline with Tween-80",6 of 6
same,survivor count,[1],5 of 6
same,survivor count,[2],3 of 6
Cc1cccc(Br)[n+]1[O-],survivor count,[3],6 of 6
same,survivor count,"dose: 50.0 mg/kg/injection, schedule: Q04DX003 (ip), vehicle: saline",6 of 6
same,survivor count,"dose: 100.0 mg/kg/injection, schedule: Q01DX001 (ip), vehicle: saline",6 of 6
C=C1C(=O)OC2C1C(OC(=O)/C(C)=C/C)CC(O)(CCl)C1C(OC(C)=O)C=C(C)C21O (centres undefined),T/C,"dose: 12.5 mg/kg/injection, schedule: Q01DX010 (ip), vehicle: saline",133 % of control
same,T/C,"dose: 200.0 mg/kg/injection, schedule: Q01DX010 (ip), vehicle: saline",144 % of control
[O-][n+]1c(CCl)nc2ccccc2c1-c1ccccc1F,survivor count,[1],1 of 6
c1cc2c(c(NC3=NCCO3)c1)CCCC2,survivor count,"dose: 300.0 mg/kg/injection, schedule: Q01DX009 (ip), vehicle: saline with Tween-80",3 of 6
[N-]=[N+]=C1C(=O)NN=C1c1ccccc1,survivor count,[4],2 of 6
Cc1ccc(S(=O)(=O)N2CCC(=O)c3ccc(Cl)cc32)cc1,survivor count,[5],4 of 6
CC1=CCCC(C)(C)C1/C=C/C(C)=C/C(=O)O (centres undefined),survivor count,[6],6 of 6
O=c1c(O)c(-c2ccc(O)c(O)c2)oc2cc(O)cc(O)c12,T/C,[7],127 % of control
same,T/C,[8],132 and 132 % of control [5 of 6 alive]
same,survivor count,"dose: 300.0 mg/kg/injection, schedule: Q01DX009 (ip), vehicle: saline",1 of 6
same,survivor count,[9],6 of 6
same,survivor count,"dose: 800.0 mg/kg/injection, schedule: Q01DX009 (ip), vehicle: saline",0 of 6
same,survivor count,"dose: 1600.0 mg/kg/injection, schedule: Q01DX009 (ip), vehicle: saline",0 of 6
CC[C@H](c1ccc(O)cc1)[C@@H](CC)c1ccc(O)cc1,T/C,"dose: 200.0 mg/kg/injection, schedule: Q04DX003 (ip), vehicle: other",125 % of control
O=C(CBr)N1CCC2(CC1)SSC1(CCN(C(=O)CBr)CC1)S2,T/C,"dose: 12.5 mg/kg/injection, schedule: Q01DX009 (ip), vehicle: saline with Tween-80, evaluated on day 20",109 % of control
same,T/C,"dose: 12.5 mg/kg/injection, schedule: Q01DX009 (ip), vehicle: saline with Tween-80, evaluated on day 22",103 % of control
same,T/C,"dose: 12.5 mg/kg/injection, schedule: Q01DX009 (ip), vehicle: saline with Tween-80, evaluated on day 30",114 and 125 % of control
same,T/C,"dose: 25.0 mg/kg/injection, schedule: Q01DX009 (ip), vehicle: saline with Tween-80, evaluated on day 20",127 % of control
same,T/C,"dose: 25.0 mg/kg/injection, schedule: Q01DX009 (ip), vehicle: saline with Tween-80, evaluated on day 22",99 % of control
same,T/C,"dose: 25.0 mg/kg/injection, schedule: Q01DX009 (ip), vehicle: saline with Tween-80, evaluated on day 30",114 % of control (2×)
same,T/C,"dose: 50.0 mg/kg/injection, schedule: Q01DX009 (ip), vehicle: saline with Tween-80, evaluated on day 20",123 % of control
same,T/C,"dose: 50.0 mg/kg/injection, schedule: Q01DX009 (ip), vehicle: saline with Tween-80, evaluated on day 22",100 % of control [5 of 6 alive]
same,T/C,"dose: 50.0 mg/kg/injection, schedule: Q01DX009 (ip), vehicle: saline with Tween-80, evaluated on day 30",118 [5 of 6 alive] and 122 % of control
same,survivor count,"dose: 100.0 mg/kg/injection, schedule: Q01DX009 (ip), vehicle: saline with Tween-80",0 of 6
same,survivor count,"dose: 100.0 mg/kg/injection, schedule: Q04DX003 (ip), vehicle: saline with Tween-80",2 of 6
same,survivor count,[1],4 of 6
same,survivor count,"dose: 400.0 mg/kg/injection, schedule: Q04DX003 (ip), vehicle: saline with Tween-80",0 of 6
O=C1NC(C2CCC3CN32)C(=O)NC1C1CCC2CN21 (centres undefined),T/C,"dose: 0.1 mg/kg/injection, schedule: Q01DX009 (ip), vehicle: saline",128 % of control
same,T/C,"dose: 0.2 mg/kg/injection, schedule: Q01DX009 (ip), vehicle: saline",138 % of control
same,T/C,"dose: 1.6 mg/kg/injection, schedule: Q01DX009 (ip), vehicle: saline",146 % of control
COC(=O)CCc1c[nH]c2ccc(N(CCCl)CCCl)cc12,T/C,"dose: 0.06 mg/kg/injection, schedule: Q01DX009 (ip), vehicle: saline with Tween-80",127 % of control
same,T/C,"dose: 0.06 mg/kg/injection, schedule: Q04DX003 (ip), vehicle: saline with Tween-80",140 % of control
same,T/C,"dose: 0.12 mg/kg/injection, schedule: Q04DX003 (ip), vehicle: saline with Tween-80",145 % of control
same,T/C,"dose: 0.5 mg/kg/injection, schedule: Q01DX009 (ip), vehicle: saline with Tween-80",144 % of control
same,T/C,"dose: 2.5 mg/kg/injection, schedule: Q04DX003 (ip), vehicle: saline with Tween-80",131 % of control
same,survivor count,"dose: 5.0 mg/kg/injection, schedule: Q01DX009 (ip), vehicle: saline with Tween-80",6 of 6
same,survivor count,"dose: 10.0 mg/kg/injection, schedule: Q01DX009 (ip), vehicle: saline with Tween-80",6 of 6
same,T/C,"dose: 10.0 mg/kg/injection, schedule: Q04DX003 (ip), vehicle: saline with Tween-80",145 % of control
same,survivor count,"dose: 20.0 mg/kg/injection, schedule: Q01DX009 (ip), vehicle: saline with Tween-80",6 of 6
same,survivor count,"dose: 40.0 mg/kg/injection, schedule: Q01DX009 (ip), vehicle: saline with Tween-80",5 of 6
OCc1ccn2c1C(O)CC2 (centres undefined),survivor count,[8],6 of 6
same,survivor count,[9],3 of 6
CCCCCCCCCCCCCCCCCCOc1ccccn1,survivor count,"dose: 12.5 mg/kg/injection, schedule: Q01DX009 (ip), vehicle: Klucel (hydroxypropylcellulose) (HPC)",6 of 6
same,survivor count,"dose: 25.0 mg/kg/injection, schedule: Q01DX009 (ip), vehicle: Klucel (hydroxypropylcellulose) (HPC)",6 of 6
same,survivor count,"dose: 50.0 mg/kg/injection, schedule: Q01DX009 (ip), vehicle: Klucel (hydroxypropylcellulose) (HPC)",6 of 6
same,survivor count,[5],6 of 6
same,survivor count,[10],6 of 6
CC(=O)c1ccc2ccccc2c1O,T/C,"dose: 265.0 mg/kg/injection, schedule: Q01DX009 (ip), vehicle: saline with Tween-80",127 % of control
same,T/C,[2],137 % of control
CC(=O)N1c2ccccc2C23CCN4CC5=CCOC(O)C(C5CC42)C13 (centres undefined),T/C,"dose: 15.0 mg/kg/injection, schedule: Q01DX009 (ip), vehicle: saline",136 % of control
same,T/C,[7],136 % of control
OC(Cc1cc(CC(O)(C(F)(F)F)C(F)(F)F)ncn1)(C(F)(F)F)C(F)(F)F,survivor count,[2],6 of 6
O=C1c2ccccc2C(=O)N1N(c1ccccc1)c1ccccc1,survivor count,[10],3 of 6
CCNC1(c2ccc(Cl)cc2)CCCCC1=O (centres undefined),survivor count,[11],5 of 6
same,survivor count,[8],0 of 6
same,survivor count,"dose: 200.0 mg/kg/injection, schedule: Q04DX003 (ip), vehicle: saline",0 of 6
O=C(O)c1cc(C(=O)O)cc(S(=O)(=O)F)c1,survivor count,[2],1 of 6
CCCCCCCC[N+]12CC[N+](CCCCCCCC)(CC1)CC2,survivor count,"dose: 12.5 mg/kg/injection, schedule: Q01DX009 (ip), vehicle: saline",3 of 6
same,survivor count,[3],0 of 6
same,survivor count,[11],0 of 6
same,survivor count,[8],0 of 6
CC(C)(CC(=O)O)CC(=O)OCC(=O)[C@@]1(O)CC[C@H]2[C@@H]3CCC4=CC(=O)C=C[C@]4(C)[C@H]3[C@@H](O)C[C@@]21C,T/C,"dose: 100.0 mg/kg/injection, schedule: Q01DX009 (sc), vehicle: steroid suspending solution",133 % of control
same,T/C,"dose: 400.0 mg/kg/injection, schedule: Q01DX009 (sc), vehicle: steroid suspending solution",133 % of control
CC(=O)Nc1ccc(N=Nc2c(C)nn(C(=N)N)c2C)cc1,survivor count,[11],6 of 6
CN(C)c1ccc(C=O)c(Br)c1,survivor count,[5],5 of 6
same,survivor count,[10],1 of 6
same,survivor count,[4],1 of 6
same,survivor count,[6],0 of 6
